Laboratory results: PubChem BioAssay AID504764 (Drosophila RNAi Screening Center, 2011)

Test: 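Genome-wide screen for regulators of Notch-driven gene expression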 (primary screen)
Cell system: Drosophila Kc167 cells
Knock-down reagent: long dsRNA against Drosophila genes
Time to read-out: about 5 days (4 days dsRNA, then 24 h after transfection)
Conditions: transfection of constitutively active membrane-tethered Notch lacking the extracellular domain, read 24 h later
Measured: 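Firefly luciferase from an E(spl)m3 reporter with active Notch, plus control-promoter and uninduced reporter wells for normalisation; unnormalised counts, duplicate wells a and b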
Reading the numbers: induced reporter light, run 1, well a and induced reporter light, run 1, well b: higher = more light from the Notch target reporter with active Notch; control promoter light, run 1, well a and control promoter light, run 1, well b: higher = more light from the viral control promoter (cell number, transfection, viability); uninduced reporter light, run 1, well a: higher = more light from the Notch target reporter without active Notch
Call rule: 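Hit if the duplicate-averaged log2 ratio of induced to control-promoter light gives a plate-wise z beyond ±2, or induced to uninduced beyond ±1.8; weak-control or discordant-duplicate wells dropped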
Calls: active = modifier hit (raised or lowered Notch signal); inactive = not a hit
The deposit covers about 22,000 reagents; below is a random part of those that have a named target and a result. Over the whole deposit, 403 (1.9%) are marked active. 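Unnormalised raw counts per well; ratio z-scores behind the hit calls and whether each hit raises or lowers signal are not deposited.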 Names joined by + are all predicted targets of the reagent. The record does not give: the amount of reagent.

predicted target | amplicon | induced reporter light, run 1, well a | induced reporter light, run 1, well b | control promoter light, run 1, well a | control promoter light, run 1, well b | uninduced reporter light, run 1, well a | outcome
CG13727 | DRSC10055 | 1.68e5 | 1.54e5 | 2.01e5 | 1.78e5 | 5885 | inactive
Alp9 (Alkaline phosphatase 9) | DRSC10486 | 80710 | 1.03e5 | 1.07e5 | 34435 | 10645 | inactive
CG10413 | DRSC02052 | 3.28e5 | 3.38e5 | 3.41e5 | 3.14e5 | 20535 | inactive
LysP (Lysozyme P) | DRSC08676 | 1.25e5 | 1.35e5 | 1.83e5 | 1.48e5 | 6580 | inactive
nxf2 (nuclear RNA export factor 2) | DRSC10403 | 1.31e5 | 1.25e5 | 93375 | 1.26e5 | 9530 | inactive
CG15429 | DRSC00444 | 2.47e5 | 1.88e5 | 3.17e5 | 2.64e5 | 11428 | inactive
CG13784 | DRSC00974 | 1.71e5 | 1.83e5 | 2.34e5 | 2.20e5 | 13500 | inactive
CG13784 | DRSC02287 | 73140 | 96770 | 39615 | 34015 | 14365 | inactive
Fkbp39 (FK506-binding protein 39kD) | DRSC16667 | 1.24e5 | 1.18e5 | 88180 | 81640 | 10320 | inactive
CG18581 | DRSC10324 | 1.71e5 | 1.50e5 | 3.00e5 | 2.68e5 | 9695 | inactive
CG15499 (retired record) | DRSC15041 | 1.41e5 | 1.25e5 | 1.64e5 | 1.69e5 | 9832 | inactive
Dpy-30L2 (Dpy-30-like 2) | DRSC08205 | 1.46e5 | 1.75e5 | 1.84e5 | 1.52e5 | 8370 | inactive
chp (chaoptin) | DRSC16925 | 1.52e5 | 1.38e5 | 2.07e5 | 2.19e5 | 13355 | inactive
bab1 (bric a brac 1) | DRSC08379 | 1.62e5 | 1.64e5 | 1.97e5 | 2.08e5 | 7885 | inactive
bab1 (bric a brac 1) | DRSC08709 | 1.57e5 | 1.51e5 | 2.14e5 | 2.34e5 | 8810 | inactive
bab1 (bric a brac 1) | DRSC21882 | – | – | – | – | – | inactive
CG4497 | DRSC02754 | 1.86e5 | 1.68e5 | 1.78e5 | 1.83e5 | 14175 | inactive
aspr (asperous) | DRSC20689 | 85985 | 1.11e5 | 1.00e5 | 1.07e5 | 9732 | inactive
aspr (asperous) | DRSC20690 | 94650 | 1.07e5 | 1.44e5 | 1.52e5 | 13015 | inactive
ab (abrupt) | DRSC03478 | 11700 | 16440 | 7795 | 6568 | 5750 | inactive
CG10073 | DRSC05961 | 40070 | 18270 | 31800 | 34555 | 2645 | inactive
CG13833 | DRSC14683 | 1.77e5 | 1.72e5 | 2.15e5 | 1.95e5 | 15788 | inactive
CSN1b (COP9 signalosome subunit 1b) | DRSC11108 | 72230 | 83895 | 35900 | 48685 | 7125 | inactive
CG12035 | DRSC08238 | 85535 | 93185 | 1.35e5 | 1.91e5 | 8005 | inactive
ana (anachronism) | DRSC07579 | 70625 | 72090 | 37125 | 31725 | 7260 | inactive
Pif1A + Pif1B | DRSC14142 | 22265 | 24285 | 31050 | 18192 | 1915 | inactive
Pif1A + Pif1B | DRSC14380 | 1.29e5 | 95210 | 1.06e5 | 83580 | 10370 | inactive
Pif1A + Pif1B | DRSC14381 | 1.04e5 | 1.30e5 | 1.03e5 | 1.07e5 | 8710 | inactive
Alh (Alhambra) | DRSC12447 | 2735 | 2488 | 2115 | 1675 | 2155 | inactive
Alh (Alhambra) | DRSC12487 | 34055 | 36230 | 27305 | 38475 | 4285 | inactive
Alh (Alhambra) | DRSC12488 | 70555 | 87650 | 58925 | 50775 | 5350 | inactive
bou (boudin) | DRSC17924 | 1.23e5 | 1.38e5 | 2.53e5 | 2.79e5 | 10845 | inactive
spin (spinster) | DRSC07176 | 1.25e5 | 1.43e5 | 1.96e5 | 2.26e5 | 8595 | inactive
CG1142 | DRSC12531 | 97845 | 1.32e5 | 1.41e5 | 94065 | 7540 | inactive
CG33282 | DRSC00422 | 1.70e5 | 1.45e5 | 1.75e5 | 1.56e5 | 9570 | inactive
Patr-1 (Protein associated with topo II related - 1) | DRSC14159 | 44910 | 40965 | 25205 | 22888 | 4215 | inactive
ste24c + CG30461 | DRSC05639 | 89430 | 66840 | 88140 | 81115 | 7505 | inactive
ste24c + CG30461 | DRSC07316 | 1.63e5 | 99880 | 1.08e5 | 1.12e5 | 8530 | inactive
spz6 (spatzle 6) | DRSC04533 | 74635 | 98235 | 58700 | 70860 | 5465 | inactive
CG9837 | DRSC16573 | 64830 | 57405 | 45230 | 57075 | 4900 | inactive
LysRS (Lysyl-tRNA synthetase) | DRSC17824 | 20478 | 20115 | 29505 | 26650 | 1580 | inactive

An excerpt taken from the entries so far:
predicted target | amplicon | induced reporter light, run 1, well a | induced reporter light, run 1, well b | control promoter light, run 1, well a | control promoter light, run 1, well b | uninduced reporter light, run 1, well a | outcome
Pif1A + Pif1B | DRSC14381 | 1.04e5 | 1.30e5 | 1.03e5 | 1.07e5 | 8710 | inactive
Alh (Alhambra) | DRSC12447 | 2735 | 2488 | 2115 | 1675 | 2155 | inactive
Alh (Alhambra) | DRSC12487 | 34055 | 36230 | 27305 | 38475 | 4285 | inactive
Alh (Alhambra) | DRSC12488 | 70555 | 87650 | 58925 | 50775 | 5350 | inactive
bou (boudin) | DRSC17924 | 1.23e5 | 1.38e5 | 2.53e5 | 2.79e5 | 10845 | inactive
spin (spinster) | DRSC07176 | 1.25e5 | 1.43e5 | 1.96e5 | 2.26e5 | 8595 | inactive
CG1142 | DRSC12531 | 97845 | 1.32e5 | 1.41e5 | 94065 | 7540 | inactive

Further records:
predicted target | amplicon | induced reporter light, run 1, well a | induced reporter light, run 1, well b | control promoter light, run 1, well a | control promoter light, run 1, well b | uninduced reporter light, run 1, well a | outcome
Alp13 (Alkaline phosphatase 13) | DRSC15781 | 72790 | 85800 | 70425 | 67195 | 4820 | inactive
Loxl2 (Lysyl oxidase-like 2) | DRSC04469 | 1.29e5 | 1.29e5 | 1.02e5 | 1.19e5 | 9125 | inactive
CG14573 | DRSC11734 | 32950 | 34940 | 40500 | 25235 | 3290 | inactive
mus301 (mutagen-sensitive 301) | DRSC10939 | 3.23e5 | 2.38e5 | 3.62e5 | 3.11e5 | 15210 | inactive
CG3494 | DRSC04375 | 2.54e5 | 1.90e5 | 2.28e5 | 2.17e5 | 16330 | inactive
CG42827 + CG42828 | DRSC16116 | 1.53e5 | 1.42e5 | 1.83e5 | 1.78e5 | 11340 | inactive
CG15278 | DRSC02481 | 1.32e5 | 1.44e5 | 1.28e5 | 1.52e5 | 11175 | inactive
CG13994 | DRSC02326 | 1.74e5 | 1.51e5 | 2.22e5 | 2.12e5 | 12605 | inactive
Or59c (Odorant receptor 59c) | DRSC04633 | 2.13e5 | 1.82e5 | 1.38e5 | 1.89e5 | 14825 | inactive
Hmgs (HMG Coenzyme A synthase) | DRSC06866 | 1.24e5 | 1.30e5 | 1.09e5 | 1.10e5 | 9825 | inactive
CG14598 | DRSC12541 | 84445 | 98600 | 1.04e5 | 82525 | 5970 | inactive
beat-VI (beaten path VI) | DRSC14474 | 1.14e5 | 1.14e5 | 1.91e5 | 1.46e5 | 9592 | inactive
beat-VI (beaten path VI) | DRSC14727 | 1.27e5 | 1.39e5 | 2.00e5 | 1.91e5 | 11305 | inactive
Cpr72Ea (Cuticular protein 72Ea) | DRSC10451 | 1.43e5 | 1.25e5 | 69820 | 91655 | 10140 | inactive
CG18547 | DRSC15345 | 56750 | 54055 | 65720 | 40510 | 4650 | inactive
CG1648 | DRSC06610 | 1.49e5 | 1.38e5 | 1.62e5 | 1.33e5 | 14025 | inactive
exex (extra-extra) | DRSC10972 | 2.54e5 | 2.68e5 | 2.77e5 | 2.60e5 | 13420 | inactive
ast (asteroid) | DRSC00803 | 1.33e5 | 1.11e5 | 84700 | 96955 | 8475 | inactive
GNBP1 (Gram-negative bacteria binding protein 1) | DRSC11169 | 2.08e5 | 2.02e5 | 2.90e5 | 1.94e5 | 9165 | inactive
CG15628 | DRSC00256 | 2805 | 2600 | 3780 | 3340 | 2525 | inactive
CG15628 | DRSC00463 | 1.68e5 | 1.12e5 | 1.72e5 | 1.72e5 | 9732 | inactive
CG15212 | DRSC10212 | 1.02e5 | 90920 | 99165 | 1.09e5 | 6155 | inactive
BomBc2 (Bomanin Bicipital 2) | DRSC06502 | 1.10e5 | 93895 | 81305 | 74980 | 6130 | inactive
